The target of this test is Human recombinant PCLAF (PCNA clamp-associated factor), His-labeled (human) (UniProt Q15004). The experiment in a line: affinity purification with mass spectrometry; membrane protein extract of bone marrow adipocytes incubated with His-labeled rPCLAF and His antibody overnight at 4 °C; Protein A/G magnetic beads 2 h at room temperature; SDS-PAGE, then MS; only the target purified.

The chains behind the UniProt entries cited, without tags or fusion partners.
UniProt Q15004: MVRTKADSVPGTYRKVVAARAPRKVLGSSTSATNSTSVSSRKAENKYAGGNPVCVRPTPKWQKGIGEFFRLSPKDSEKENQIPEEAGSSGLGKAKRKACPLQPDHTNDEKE

No constants are given. Whether binding was seen depends on the method and setting. In cells and extracts the contact can be indirect. Here binding means that the protein was enriched with, or labelled near, the bait; the list need not be complete.

B1: ADGRL2 (adhesion Class G-protein-coupled receptor, formerly termed latrophilin 2), endogenous in bone marrow adipocytes (receptor, UniProt Q8JZZ7 26-1487)
chain: FSRAALPFGLVRRELSCEGYSIDLRCPGSDVIMIESANYGRTDDKICDADPFQMENTDCYLPDAFKIMTQRCNNRTQCIVVTGSDVFPDPCPGTYKYLEVQYECVPYSKMLVFVCPGTLKAIVDSPCIYEAEQKSGAWCKDPLQAADKIYFMPWTPYRTDTLIEYASLEDFQNSRQTTTYKLPNRVDGTGFVVYDGAVFFNKERTRNIVKFDLRTRIKSGEAIINYANYHDTSPYRWGGKTDIDLAVDENGLWVIYATEQNNGMIVISQLNPYTLRFEATWETAYDKRAASNAFMICGVLYVVRSVYQDNESEAGKNTIDYIYNTRLSRGEYVDVPFPNQYQYIAAVDYNPRDNQLYVWNNNFILRYSLEFGPPDPAQVPTTAVTITSSAELFKTTISTTSSASQRGPVSSTAAGPQDGSRGTKPPPAVSTTKIPPVTNIFPLPERFCEALDWKGIKWPQTQRGMMVERPCPKGTRGTASYLCMASTGTWNPKGPDLSNCTSHWVNQLAQKIRSGENAASLANELAKHTKGHVFAGDVSSSVRLMEQLVDILDAQLQELKPSEKDSAGRSYNKLQKREKTCRAYLKAIVDTVDNLLRAEALESWKHMNSSEQAHTATMLLDTLEEGAFVLADNLLEPTRVSMPTENIVLEVAVLSTEGQVQDFKFPLGLKGLGSSIQLSANTVKQNSRNGLAKLVFIIYRSLGQFLSTENATIKLGADLMGRNSTIAVNSPVISVSINKESSRVYLTDPVLFTLPHIDPDNYFNANCSFWNYSERTMMGYWSTQGCKLVDTNKTRTTCACSHLTNFAILMAHREIAYKDGVHHLLLTVITWVGIVVSLVCLAICIFTFCFFRGLQSDRNTIHKNLCINLFIAEFIFLIGIDKTKYTIACPVFAGLLHFFFLAAFSWMCLEGVQLYLMLVEVFESEYSRKKYYYVAGYLFPATVVGVSAAIDYKSYGTVQACWLHVDNYFIWSFIGPVTFIILLNIIFLVITLCKMVKHSNTLKPDSSRLENINNYRVCDGYYNTDLPGYEDNKPFIKSWVLGAFALLCLLGLTWSFGLLFVNEETVVMAYLFTAFNAFQGLFIFIFHCALQKKVRKEYGKCFRHWYCCGGLPTESPHSSVKASTTRTSARYSSGTQSRIRRMWNDTVRKQSESSFISGDINSTSTLNQGMTGNYLLTNPLLRPHGTNNPYNTLLAETVVCNAPSAPAFNSPGHSLNNARDTSAMDTLPLNGNFNNSYSLRKADYHDGVQVVDCGLSLNDTAFEKMIISELVHNNLRGGNKTHNLELKLPVKPVIGGSSSEDDAIVADASSLMHGDNPGLEFRHKELEAPLIPQRTHSLLYQPQKKVKPEATDSYVSQLTAEADDHLQSPNRDSLYTSMPNLRDSPYPESSPDMAEDLSPSRRSENEDIYYKSMPNLGAGRHLHMCYQISRGNSDGYIIPINKEGCIPEGDVREGQMQLVTSL
Turning to B1, the binding result is “binds”.

Source of the values: paper PMC11222446.
